# Results taken from the supplement of paper PMC10849652.
# Amino acid sequences for entries named in this document (tags omitted). A change or cut given only in a name is not applied to a line headed by its entry.
# UniProt Q96PV7: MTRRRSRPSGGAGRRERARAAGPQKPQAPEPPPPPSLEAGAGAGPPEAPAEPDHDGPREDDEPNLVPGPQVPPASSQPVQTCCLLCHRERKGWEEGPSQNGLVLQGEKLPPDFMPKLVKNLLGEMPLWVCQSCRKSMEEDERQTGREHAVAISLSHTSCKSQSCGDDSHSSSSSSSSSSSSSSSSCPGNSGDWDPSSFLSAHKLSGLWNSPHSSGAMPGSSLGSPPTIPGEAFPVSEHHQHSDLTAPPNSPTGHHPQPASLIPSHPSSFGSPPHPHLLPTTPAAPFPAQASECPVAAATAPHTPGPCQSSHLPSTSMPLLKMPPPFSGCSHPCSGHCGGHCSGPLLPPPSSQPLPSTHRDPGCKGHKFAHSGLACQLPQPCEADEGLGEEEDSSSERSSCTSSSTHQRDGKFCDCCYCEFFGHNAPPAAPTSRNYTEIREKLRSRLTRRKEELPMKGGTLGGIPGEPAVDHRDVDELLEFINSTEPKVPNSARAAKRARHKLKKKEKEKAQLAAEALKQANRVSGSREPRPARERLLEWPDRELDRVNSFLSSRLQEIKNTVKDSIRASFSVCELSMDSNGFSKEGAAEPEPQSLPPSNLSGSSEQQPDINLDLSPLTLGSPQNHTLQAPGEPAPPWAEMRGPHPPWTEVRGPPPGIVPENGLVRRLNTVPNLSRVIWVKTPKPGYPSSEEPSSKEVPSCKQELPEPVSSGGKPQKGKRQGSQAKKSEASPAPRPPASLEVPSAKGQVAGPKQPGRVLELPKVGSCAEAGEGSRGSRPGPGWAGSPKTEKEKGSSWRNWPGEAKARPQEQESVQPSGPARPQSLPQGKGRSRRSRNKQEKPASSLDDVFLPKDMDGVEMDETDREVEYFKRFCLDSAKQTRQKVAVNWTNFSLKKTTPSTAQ
# UniProt Q9H8W3: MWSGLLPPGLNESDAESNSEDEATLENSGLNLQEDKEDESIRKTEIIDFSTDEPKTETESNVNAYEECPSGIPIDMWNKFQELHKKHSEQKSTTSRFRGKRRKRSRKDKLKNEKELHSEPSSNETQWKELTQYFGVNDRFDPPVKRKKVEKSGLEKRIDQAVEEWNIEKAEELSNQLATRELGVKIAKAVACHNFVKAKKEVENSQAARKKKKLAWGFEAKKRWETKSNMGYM
# UniProt Q9NVH0: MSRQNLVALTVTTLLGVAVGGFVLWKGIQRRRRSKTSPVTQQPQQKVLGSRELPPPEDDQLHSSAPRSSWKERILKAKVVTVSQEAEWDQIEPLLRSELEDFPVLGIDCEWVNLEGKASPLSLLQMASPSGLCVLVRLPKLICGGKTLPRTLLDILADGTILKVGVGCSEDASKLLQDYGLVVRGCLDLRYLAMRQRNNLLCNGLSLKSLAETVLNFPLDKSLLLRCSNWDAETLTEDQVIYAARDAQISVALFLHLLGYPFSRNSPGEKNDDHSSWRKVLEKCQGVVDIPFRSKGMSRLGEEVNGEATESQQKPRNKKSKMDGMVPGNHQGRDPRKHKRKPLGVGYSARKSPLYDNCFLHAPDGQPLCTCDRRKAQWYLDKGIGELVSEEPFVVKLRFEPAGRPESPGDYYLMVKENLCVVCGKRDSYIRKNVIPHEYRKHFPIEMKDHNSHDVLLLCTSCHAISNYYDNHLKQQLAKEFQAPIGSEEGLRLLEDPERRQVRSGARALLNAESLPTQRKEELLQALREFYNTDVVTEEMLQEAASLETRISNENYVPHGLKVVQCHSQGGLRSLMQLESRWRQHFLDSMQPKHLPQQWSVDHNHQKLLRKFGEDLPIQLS
# UniProt P25116: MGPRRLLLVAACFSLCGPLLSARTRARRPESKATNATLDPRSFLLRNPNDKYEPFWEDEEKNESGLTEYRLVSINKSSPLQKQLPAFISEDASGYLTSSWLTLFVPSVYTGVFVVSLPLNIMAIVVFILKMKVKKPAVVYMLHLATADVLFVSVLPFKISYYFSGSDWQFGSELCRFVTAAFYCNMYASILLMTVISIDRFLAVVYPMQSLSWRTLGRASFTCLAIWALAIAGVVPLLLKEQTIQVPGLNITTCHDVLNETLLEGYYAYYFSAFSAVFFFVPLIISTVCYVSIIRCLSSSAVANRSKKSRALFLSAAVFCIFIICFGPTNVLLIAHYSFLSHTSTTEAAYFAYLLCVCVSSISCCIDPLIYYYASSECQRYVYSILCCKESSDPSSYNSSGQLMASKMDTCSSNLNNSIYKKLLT
# UniProt P41161: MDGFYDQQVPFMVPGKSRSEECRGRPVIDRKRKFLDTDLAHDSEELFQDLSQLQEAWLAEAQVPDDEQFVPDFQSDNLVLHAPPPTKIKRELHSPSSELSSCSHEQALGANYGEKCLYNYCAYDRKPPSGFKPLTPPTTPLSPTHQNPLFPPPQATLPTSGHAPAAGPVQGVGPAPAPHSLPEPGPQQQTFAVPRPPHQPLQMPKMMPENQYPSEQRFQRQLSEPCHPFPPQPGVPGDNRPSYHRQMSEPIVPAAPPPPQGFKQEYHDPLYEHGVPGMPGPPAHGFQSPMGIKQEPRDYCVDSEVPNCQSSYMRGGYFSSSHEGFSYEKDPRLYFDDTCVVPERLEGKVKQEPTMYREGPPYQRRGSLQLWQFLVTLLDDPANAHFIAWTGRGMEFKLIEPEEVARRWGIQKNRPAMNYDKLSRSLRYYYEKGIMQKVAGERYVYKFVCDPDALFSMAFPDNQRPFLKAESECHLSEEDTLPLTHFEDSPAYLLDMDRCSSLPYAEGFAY
# UniProt Q9UQ84: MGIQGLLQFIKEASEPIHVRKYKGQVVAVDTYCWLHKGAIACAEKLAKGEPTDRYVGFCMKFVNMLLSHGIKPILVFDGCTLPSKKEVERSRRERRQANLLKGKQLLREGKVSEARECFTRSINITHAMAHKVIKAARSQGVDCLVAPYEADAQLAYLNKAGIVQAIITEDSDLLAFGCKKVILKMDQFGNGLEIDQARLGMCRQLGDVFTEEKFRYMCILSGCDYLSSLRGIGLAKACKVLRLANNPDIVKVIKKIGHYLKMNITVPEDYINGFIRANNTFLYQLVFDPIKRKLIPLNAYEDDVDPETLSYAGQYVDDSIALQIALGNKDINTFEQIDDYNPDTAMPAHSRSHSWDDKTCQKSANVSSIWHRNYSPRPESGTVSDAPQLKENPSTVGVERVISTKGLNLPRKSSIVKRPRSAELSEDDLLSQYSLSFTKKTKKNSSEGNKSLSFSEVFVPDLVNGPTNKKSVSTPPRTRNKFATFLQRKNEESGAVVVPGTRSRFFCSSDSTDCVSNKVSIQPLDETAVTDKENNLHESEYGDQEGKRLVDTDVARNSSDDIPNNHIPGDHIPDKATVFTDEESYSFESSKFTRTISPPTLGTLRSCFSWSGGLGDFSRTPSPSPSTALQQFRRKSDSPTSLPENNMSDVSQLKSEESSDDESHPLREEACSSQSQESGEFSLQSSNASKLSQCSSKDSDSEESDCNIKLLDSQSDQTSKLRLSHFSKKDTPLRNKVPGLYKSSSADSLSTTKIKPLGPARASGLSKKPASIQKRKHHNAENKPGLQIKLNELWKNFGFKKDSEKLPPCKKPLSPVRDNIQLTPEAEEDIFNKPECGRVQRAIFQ
# UniProt O43909: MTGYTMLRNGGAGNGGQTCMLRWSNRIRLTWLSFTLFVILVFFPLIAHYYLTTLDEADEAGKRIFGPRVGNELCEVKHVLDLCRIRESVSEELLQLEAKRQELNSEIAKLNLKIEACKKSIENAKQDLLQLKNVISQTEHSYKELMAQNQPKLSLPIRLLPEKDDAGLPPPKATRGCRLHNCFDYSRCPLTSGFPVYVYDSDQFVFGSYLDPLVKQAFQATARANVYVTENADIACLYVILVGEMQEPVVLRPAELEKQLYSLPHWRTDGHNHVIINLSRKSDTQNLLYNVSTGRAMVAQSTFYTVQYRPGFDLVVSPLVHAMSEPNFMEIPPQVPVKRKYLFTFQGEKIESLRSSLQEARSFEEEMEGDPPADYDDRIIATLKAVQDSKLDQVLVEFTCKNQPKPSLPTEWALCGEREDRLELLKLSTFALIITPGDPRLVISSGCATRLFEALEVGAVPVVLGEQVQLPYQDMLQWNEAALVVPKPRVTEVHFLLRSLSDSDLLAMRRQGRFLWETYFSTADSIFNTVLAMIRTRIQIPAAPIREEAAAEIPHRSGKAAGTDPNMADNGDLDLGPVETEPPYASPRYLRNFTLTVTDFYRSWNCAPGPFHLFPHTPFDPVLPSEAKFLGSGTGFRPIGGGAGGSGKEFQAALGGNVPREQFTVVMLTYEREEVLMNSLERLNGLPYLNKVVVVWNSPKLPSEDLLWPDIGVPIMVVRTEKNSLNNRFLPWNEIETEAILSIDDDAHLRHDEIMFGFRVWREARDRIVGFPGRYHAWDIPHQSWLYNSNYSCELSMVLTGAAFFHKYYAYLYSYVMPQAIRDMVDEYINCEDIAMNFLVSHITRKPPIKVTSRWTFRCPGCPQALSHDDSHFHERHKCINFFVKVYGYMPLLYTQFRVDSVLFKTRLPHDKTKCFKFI
# UniProt O75460: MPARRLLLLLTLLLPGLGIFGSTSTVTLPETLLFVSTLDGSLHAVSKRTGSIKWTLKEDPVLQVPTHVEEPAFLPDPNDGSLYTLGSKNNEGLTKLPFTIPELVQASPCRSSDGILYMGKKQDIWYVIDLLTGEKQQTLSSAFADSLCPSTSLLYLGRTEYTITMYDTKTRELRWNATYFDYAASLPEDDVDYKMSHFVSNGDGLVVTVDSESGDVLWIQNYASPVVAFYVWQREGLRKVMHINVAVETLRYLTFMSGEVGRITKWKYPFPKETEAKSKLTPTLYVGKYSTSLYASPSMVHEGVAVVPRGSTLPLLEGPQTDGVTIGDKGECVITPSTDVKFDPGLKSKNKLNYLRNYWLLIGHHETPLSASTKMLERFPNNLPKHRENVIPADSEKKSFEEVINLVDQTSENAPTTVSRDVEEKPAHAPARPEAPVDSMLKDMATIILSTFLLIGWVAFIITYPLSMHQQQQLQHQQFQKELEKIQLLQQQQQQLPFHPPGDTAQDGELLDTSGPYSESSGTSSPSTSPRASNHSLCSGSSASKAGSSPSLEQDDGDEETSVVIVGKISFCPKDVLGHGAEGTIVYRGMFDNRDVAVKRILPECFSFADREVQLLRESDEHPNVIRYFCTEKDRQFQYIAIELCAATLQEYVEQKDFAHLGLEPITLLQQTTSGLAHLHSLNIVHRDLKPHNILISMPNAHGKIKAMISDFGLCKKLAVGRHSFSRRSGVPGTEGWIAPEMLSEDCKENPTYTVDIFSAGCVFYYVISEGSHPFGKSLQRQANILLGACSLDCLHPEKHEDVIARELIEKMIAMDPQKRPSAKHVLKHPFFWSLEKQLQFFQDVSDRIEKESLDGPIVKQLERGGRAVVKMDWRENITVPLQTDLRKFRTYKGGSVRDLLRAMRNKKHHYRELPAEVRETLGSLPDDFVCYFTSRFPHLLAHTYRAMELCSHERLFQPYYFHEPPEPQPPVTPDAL
# UniProt H0Y354, whole entry, looked up: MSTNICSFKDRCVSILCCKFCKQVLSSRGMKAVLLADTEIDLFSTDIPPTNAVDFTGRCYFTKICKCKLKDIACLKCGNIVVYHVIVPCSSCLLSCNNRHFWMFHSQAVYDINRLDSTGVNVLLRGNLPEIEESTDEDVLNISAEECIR
# The list shows a part of the results.
# Key:
# Assay in all cases: log2 fold change, soluble protein after heating vs DMSO (PISA); higher = thermal stabilisation; K562 lysate, 10 uM; active = over 0.2 and 3.5 SD of the protein, either way, in both replicates (recomputed)
# [1] = compound: CC(=O)c1cnc2ccc(-c3cc(Cl)c(O)c(Cl)c3)nc2c1N[C@H]1CC[C@H](CN(C)C)CC1
# Outline: (§1)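 Dounce homogenisation of K562 pellets in PBS pH 7.4 with 1 mM MgCl2 produced a crude extract, used at 1 mg/mL protein. Exposure to 10 μM compound lasted 30 min, and aliquots were then heated for 3 min across 48°C-58°C, pooled and brought to 0.5% NP-40 at 4°C. The supernatant after 21,000xg for 90 min was quantified by TMTpro 16plex LC-MS/MS with channel sums equalised. Duplicate values are given as log-two fold change in thermal stability relative to solvent controls.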
# [2] = compound: CC(C)C1=C2N=C(C=C(N2N=C1)NCC3=CC=CC=C3)NCCCCCCN
# Outline: as §1
# [3] = compound: CC1=C(C=C(C=C1)NC(=O)C2=CC(=CC=C2)C(C)(C)C#N)NC3=CC4=C(C=C3)N=CN(C4=O)C
# Outline: as §1
# [4] = compound: CC1=CC=C(C=C1)SC2=C3C=C(SC3=CN=C2)C(=O)N
# Outline: as §1
# [5] = compound: CCCS(=O)(=O)Nc1ccc(F)c(C(=O)c2c[nH]c3ncc(-c4ccc(Cl)cc4)cc23)c1F [vemurafenib]
# Outline: as §1
# [6] = compound: CCCS(=O)(=O)Nc1ccc(F)c(C(=O)c2c[nH]c3ncc(Cl)cc23)c1F
# Outline: as §1
# [7] = compound: CC[C@@H]1C(=O)N(C)c2cnc(Nc3ccc(C(=O)N[C@H]4CC[C@H](N5CCN(CC6CC6)CC5)CC4)cc3OC)nc2N1C(C)C [volasertib]
# Outline: as §1
# [8] = compound: CCn1cc(-c2ccnc3[nH]c(-c4cccc(CN(C)C)c4)cc23)c(-c2ccc(NC(=O)N(C)C)cc2)n1
# Outline: as §1
# [9] = compound: CN1CCC(CNc2ccc3ncc(-c4cccc(OC(F)(F)F)c4)n3n2)CC1
# Outline: as §1
# [10] = compound: CN1CCN(c2nc(C3=C(c4c[nH]c5ccccc45)C(=O)NC3=O)c3ccccc3n2)CC1 [sotrastaurin]
# Outline: as §1
# [11] = compound: CC(C)(C)Cn1c(N)nc2ccc(-c3[nH]c(C(C)(C)C)nc3-c3ccc(F)cc3)nc21 [ralimetinib]
# Outline: as §1
# [12] = compound: CC(C)(O)CC(=O)NCCn1ccc2ncnc(Nc3ccc(Oc4cccc(C(F)(F)F)c4)c(Cl)c3)c21
# Outline: as §1
# [13] = compound: CC1=C(C=C(C=C1)NC(=O)C2=CC(=CC=C2)N(C)C)NC(=O)C3=CC=C(C=C3)O
# Outline: as §1
# [14] = compound: CCn1c(C(=O)N(C2CC2)C2CC2)cc2c3c(ncn3C)c(Nc3cc(C)n(C)n3)nc21
# Outline: as §1
# [15] = compound: CC1=C(C(CC(=O)N1)C2=CC=C(C=C2)C(F)(F)F)C(=O)NC3=C(C=C4C(=C3)C=NN4)F
# Outline: as §1
# [16] = compound: CC1=C(C2=C(C=C1)C(=O)C3=CC=CC=C3N2CCCN)C
# Outline: as §1
# [17] = compound: CN1CCN(CCOc2cc(OC3CCOCC3)c3c(Nc4c(Cl)ccc5c4OCO5)ncnc3c2)CC1 [saracatinib]
# Outline: as §1
# [18] = compound: CC[C@@H]1C(=O)N(C)c2cnc(Nc3ccc(C(=O)NC4CCN(C)CC4)cc3OC)nc2N1C1CCCC1
# Outline: as §1
target,measurement,setting,value
FAM193B (UniProt Q96PV7),log2 fold change,[1],inactive: 0.228
same,log2 fold change,[2],inactive: -0.089
same,log2 fold change,[3],inactive: 0.254
same,log2 fold change,[4],inactive: 0.052
same,log2 fold change,[5],inactive: 0.017
same,log2 fold change,[6],inactive: -0.089
same,log2 fold change,[7],inactive: -0.012
same,log2 fold change,[8],inactive: -0.134
same,log2 fold change,[9],inactive: -0.016
same,log2 fold change,[10],inactive: -0.318
FAM204A (UniProt Q9H8W3),log2 fold change,[11],inactive: -0.12
same,log2 fold change,[12],inactive: 0.061
same,log2 fold change,[2],inactive: -0.117
same,log2 fold change,[3],inactive: 0.174
same,log2 fold change,[13],inactive: -0.002
same,log2 fold change,[5],inactive: -0.003
same,log2 fold change,[14],inactive: 0.059
same,log2 fold change,[8],inactive: 0.273
same,log2 fold change,[9],active: -0.614
same,log2 fold change,[10],inactive: -0.083
ETV1 (UniProt P50549),log2 fold change,[11],inactive: 0.133
same,log2 fold change,[12],inactive: 0.022
same,log2 fold change,[2],inactive: -0.11
same,log2 fold change,[15],inactive: 0.255
same,log2 fold change,[16],inactive: -0.008
same,log2 fold change,[13],inactive: -0.085
same,log2 fold change,[14],inactive: -0.046
same,log2 fold change,[17],inactive: 0.237
EXD2 (UniProt Q9NVH0),log2 fold change,[11],inactive: 0.11
same,log2 fold change,[12],inactive: -0.185
same,log2 fold change,[2],inactive: 0.003
same,log2 fold change,[16],inactive: -0.023
same,log2 fold change,[3],inactive: 0.013
same,log2 fold change,[13],inactive: 0.084
same,log2 fold change,[5],inactive: -0.047
same,log2 fold change,[14],inactive: -0.145
same,log2 fold change,[17],inactive: 0.049
same,log2 fold change,[10],inactive: 0.038
F2RL3 (UniProt Q96RI0),log2 fold change,[1],inactive: 0.019
same,log2 fold change,[11],inactive: -0.03
same,log2 fold change,[12],inactive: -0.183
same,log2 fold change,[2],inactive: -0.092
same,log2 fold change,[15],inactive: 0.104
same,log2 fold change,[16],inactive: 0.038
same,log2 fold change,[13],inactive: -0.039
same,log2 fold change,[4],inactive: -0.097
same,log2 fold change,[5],inactive: 0.132
same,log2 fold change,[6],inactive: 0.03
same,log2 fold change,[7],inactive: 0.055
same,log2 fold change,[14],inactive: 0.14
same,log2 fold change,[8],inactive: -0.089
same,log2 fold change,[9],inactive: 0.25
same,log2 fold change,[17],inactive: 0.052
F2R (UniProt P25116),log2 fold change,[3],inactive: -0.015
same,log2 fold change,[8],inactive: -0.014
same,log2 fold change,[9],inactive: 0.284
same,log2 fold change,[10],inactive: 0.083
FAM122B isoform 2 (UniProt Q7Z309),log2 fold change,[11],inactive: -0.047
same,log2 fold change,[12],inactive: -0.119
same,log2 fold change,[13],inactive: 0.02
same,log2 fold change,[14],inactive: 0.149
ETV5 isoform 2 (UniProt P41161),log2 fold change,[5],inactive: -0.036
same,log2 fold change,[18],inactive: -0.155
same,log2 fold change,[8],inactive: 0.009
same,log2 fold change,[9],inactive: 0.014
EURL (UniProt Q9NYK6),log2 fold change,[1],inactive: 0.202
same,log2 fold change,[2],inactive: 0.179
same,log2 fold change,[16],inactive: -0.052
same,log2 fold change,[4],inactive: -0.032
same,log2 fold change,[6],inactive: 0.188
same,log2 fold change,[7],inactive: -0.113
same,log2 fold change,[8],inactive: 0.038
same,log2 fold change,[9],inactive: -0.045
same,log2 fold change,[17],inactive: 0.035
"EXOC3L2, A0A1C7CYX0",log2 fold change,[2],inactive: 0.012
same,log2 fold change,[16],inactive: 0.15
same,log2 fold change,[3],inactive: -0.057
same,log2 fold change,[18],inactive: 0.162
same,log2 fold change,[8],inactive: -0.049
same,log2 fold change,[9],inactive: -0.055
same,log2 fold change,[17],inactive: 0.063
same,log2 fold change,[10],inactive: 0.057
EXO1 (UniProt Q9UQ84),log2 fold change,[1],inactive: 0.06
same,log2 fold change,[11],inactive: -0.049
same,log2 fold change,[12],inactive: -0.291
same,log2 fold change,[2],inactive: -0.114
same,log2 fold change,[15],inactive: 0.073
same,log2 fold change,[3],inactive: -0.002
same,log2 fold change,[13],inactive: -0.01
same,log2 fold change,[4],inactive: -0.045
same,log2 fold change,[5],inactive: -0.15
same,log2 fold change,[6],inactive: 0.009
same,log2 fold change,[7],inactive: -0.015
same,log2 fold change,[14],inactive: 0.153
same,log2 fold change,[8],inactive: -0.067
same,log2 fold change,[9],inactive: 0.208
same,log2 fold change,[10],inactive: 0.035
FAM234B (UniProt A2RU67),log2 fold change,[1],inactive: -0.157
same,log2 fold change,[11],inactive: -0.047
same,log2 fold change,[12],inactive: -0.078
same,log2 fold change,[13],inactive: 0.085
same,log2 fold change,[4],inactive: -0.123
same,log2 fold change,[6],inactive: 0.106
same,log2 fold change,[7],inactive: -0.047
same,log2 fold change,[14],inactive: -0.127
EXTL3 (UniProt O43909),log2 fold change,[1],inactive: 0.031
same,log2 fold change,[11],inactive: 0.007
same,log2 fold change,[12],inactive: 0.079
same,log2 fold change,[2],inactive: -0.068
same,log2 fold change,[16],inactive: -0.034
same,log2 fold change,[3],inactive: -0.026
same,log2 fold change,[13],inactive: 0.02
same,log2 fold change,[4],inactive: 0.095
same,log2 fold change,[5],inactive: -0.112
same,log2 fold change,[6],inactive: 0.061
same,log2 fold change,[7],inactive: -0.135
same,log2 fold change,[14],inactive: 0.022
same,log2 fold change,[8],inactive: 0.075
same,log2 fold change,[9],inactive: -0.008
same,log2 fold change,[17],inactive: -0.04
same,log2 fold change,[10],inactive: -0.002
FAM171A2 (UniProt A8MVW0),log2 fold change,[2],inactive: 0.329
ESCO2 (UniProt Q56NI9),log2 fold change,[1],inactive: -0.098
same,log2 fold change,[11],inactive: 0.037
same,log2 fold change,[12],inactive: 0.126
same,log2 fold change,[2],inactive: 0.034
same,log2 fold change,[16],inactive: -0.122
same,log2 fold change,[3],inactive: -0.092
same,log2 fold change,[13],inactive: 0.125
same,log2 fold change,[4],inactive: 0.089
same,log2 fold change,[6],inactive: 0.022
same,log2 fold change,[18],inactive: 0.032
same,log2 fold change,[7],inactive: 0.135
same,log2 fold change,[14],inactive: -0.041
same,log2 fold change,[8],inactive: 0.473
same,log2 fold change,[9],inactive: -0.282
same,log2 fold change,[17],inactive: 0.112
same,log2 fold change,[10],inactive: 0.146
ERN1 (UniProt O75460),log2 fold change,[2],inactive: 0.041
same,log2 fold change,[18],inactive: 0.073
FAM72C (UniProt H0Y354),log2 fold change,[11],inactive: -0.163
same,log2 fold change,[12],inactive: -0.395
same,log2 fold change,[13],inactive: 0.053
same,log2 fold change,[5],inactive: -0.157
same,log2 fold change,[14],inactive: 0.138
same,log2 fold change,[8],inactive: -0.204
same,log2 fold change,[9],inactive: 0
ETAA1 (UniProt Q9NY74),log2 fold change,[2],inactive: -0.035
same,log2 fold change,[5],inactive: -0.105
same,log2 fold change,[18],inactive: 0.255
FAM13A (UniProt O94988),log2 fold change,[11],inactive: -0.022
same,log2 fold change,[12],inactive: 0.102
same,log2 fold change,[16],inactive: -0.093
same,log2 fold change,[3],inactive: 0.051
same,log2 fold change,[13],inactive: 0.234
same,log2 fold change,[14],inactive: 0.044
same,log2 fold change,[17],inactive: 0.127
same,log2 fold change,[10],inactive: 0.088

# Exported as tab-separated lines: entries from further up.
target	measurement	setting	value
FAM204A (UniProt Q9H8W3)	log2 fold change	[10]	inactive: -0.083
ETV5 isoform 2 (UniProt P41161)	log2 fold change	[18]	inactive: -0.155
EXOC3L2, A0A1C7CYX0	log2 fold change	[18]	inactive: 0.162
same	log2 fold change	[8]	inactive: -0.049
